Data published in PubChem BioAssay AID504847 (National Center for Advancing Translational Sciences (NCATS), 2011).
“And” between values parts separate entries of the source, which are not always exact repeats. Equal values may be shown once. Screen size: about 400,000 compounds; about 3,700 (0.93%) were called active. Inconclusive results, whose numbers are uncertain, are shown with a selection of clear calls. Calls follow the shape of the dose curve; as a rule, active = well fitted inhibition curve with a large enough effect; inconclusive = small, poorly fitted or top-dose-only effect, or another doubt; inactive = no such curve, though single readings can be large or run the other way. Where the call is inconclusive, the potency comes from a doubtful curve fit.
% is scaled to controls: 0 for no effect and ±100 for the full control effect; potency is read from the fitted curve at half-maximal effect.

Protein sequences, listed by entry. Tags and fused reporters are not part of them. Lines headed by an entry give the natural chain unless they say otherwise; changes in a name come on top.
UniProt P11473: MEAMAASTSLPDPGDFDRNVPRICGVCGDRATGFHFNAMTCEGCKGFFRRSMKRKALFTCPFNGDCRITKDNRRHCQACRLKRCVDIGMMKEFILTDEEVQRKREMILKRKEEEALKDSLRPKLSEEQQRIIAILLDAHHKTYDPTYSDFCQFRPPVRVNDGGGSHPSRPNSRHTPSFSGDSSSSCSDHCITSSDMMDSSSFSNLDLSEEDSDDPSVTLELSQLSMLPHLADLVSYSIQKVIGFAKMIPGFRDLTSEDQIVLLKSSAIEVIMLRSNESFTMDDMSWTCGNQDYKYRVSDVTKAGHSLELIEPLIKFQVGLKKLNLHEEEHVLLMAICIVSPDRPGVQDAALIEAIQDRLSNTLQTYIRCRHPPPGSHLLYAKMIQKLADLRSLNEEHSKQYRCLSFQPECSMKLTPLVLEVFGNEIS

What follows are molecules tested against Vitamin D3 receptor (Homo sapiens) (UniProt P11473) (assay: Inhibitors of the vitamin D receptor (VDR): qHTS). Conditions: VDR-SRC2-3 peptide fluorescence polarization, 2 h; max response, negative = inhibition: stronger effect = lower value.
In short: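 After 23 nl compound addition and a short centrifugation, plates sat for 2 hours at ambient temperature; polarization of fluorescence then indicated loss of VDR binding to peptide SRC2-3.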
With `S=C(NCc1ccc2c(c1)OCO2)Nc1ccc(-c2nc3ccccc3[nH]2)cc1` the Potency was inconclusive: 100 µM [inhibitor, single point].
In the case of `COc1ccc(-c2cc(C(F)(F)F)nc(S(C)(=O)=O)n2)cc1OC`, the Potency is reported as inconclusive: 56.2 µM [inhibitor, partial curve, poor fit].
With `COc1ccc2c(c1)CCCC(Br)C2=O` (configuration not stated) the Potency was inconclusive: 89.1 µM [inhibitor, single point].
With `Cc1ccc(C)c(NC(=O)CN(C)C(=O)c2oc3c(Cl)cccc3c2C)c1` the max response, negative = inhibition was inactive: 5.04%.
`C#CCSc1nccc(-c2nn(-c3ccc(C)cc3)ccc2=O)n1` was tested, and the Potency was inconclusive: 70.8 µM [inhibitor, single point].
In the case of `Cc1ccc(Cl)cc1N1CCN(S(=O)(=O)c2c(C)[nH]c(=O)[nH]c2=O)CC1`, the max response, negative = inhibition is reported as inactive: -10.4%.
For `Cc1ccccc1/[N+]([O-])=C/c1ccncc1`, the Potency was inconclusive: 17.8 µM [inhibitor, full curve, poor fit].
With `Cc1cc(C)cc(NC(=O)C2C3C=CC4(O3)C2C(=O)N(CCN2CCCCC2)C4C(=O)NC2CCCCC2)c1` (configuration not stated) the Potency was inconclusive: 89.1 µM [inhibitor, single point].
In the case of `CCOC(=O)c1ccc2c(c1)sc1nc(-c3ccc(OCC)cc3)cn12`, the max response, negative = inhibition is reported as inactive: -2.64%.
With `CCOC(=O)c1c(NC(=S)NC)sc2c1CC(C)(C)SC2` the Potency was inconclusive: 28.2 µM [inhibitor, partial curve, poor fit].
In the case of `Cc1ccc(C)c(N2CCN(C(=O)CCc3nc4ccccc4[nH]3)CC2)c1`, the Potency is reported as inconclusive: 89.1 µM [inhibitor, partial curve, poor fit].
With `CCCNC(=S)N1CCC(NC(=O)C2CCCCC2)CC1` the Potency was inconclusive: 31.6 µM [inhibitor, single point].
In the case of `O=C(c1ccco1)N1CCC2(CCCN(c3ccccc3)C2)CC1`, the Potency is reported as inconclusive: 35.5 µM [inhibitor, partial curve].
For `CC(C)[C@H]1COCCS(=O)(=O)N1Cc1ccccc1-c1ccccc1`, the Potency was inconclusive: 89.1 µM [inhibitor, partial curve].
With `Cc1ccc(/C=C/C(=O)NCCCN2CCN(CCCNC(=O)/C=C/c3ccc(C)o3)CC2)o1` the max response, negative = inhibition was inactive: 3.41%.
With `COc1cc2nc(N3CCCN(C)CC3)nc(NC3CCN(Cc4ccccc4)CC3)c2cc1OC` the max response, negative = inhibition was inactive: -8.14%.
`Cc1sc2ccccc2[n+]1CCC(C)S(=O)(=O)[O-]` (configuration not stated) was tested, and the Potency was inconclusive: 44.7 µM [inhibitor, partial curve, poor fit].
In the case of `CC(Oc1ccc(Br)cc1)C(=O)Nc1nc(-c2ccccn2)cs1` (configuration not stated), the Potency is reported as inconclusive: 79.4 µM [inhibitor, single point].
For `CC(C)SC1=NC(C)(C)C=C(/C=C/c2ccc(Cl)cc2Cl)N1`, the Potency was inconclusive: 50.1 µM [inhibitor, partial curve, poor fit].
`CC(=O)c1ccccc1OC(=O)COc1ccc([N+](=O)[O-])cc1` was tested, and the Potency was inconclusive: 14.1 µM [inhibitor, full curve].
In the case of `O=C(c1ccc(F)cc1)N1CCN(Cc2ccccc2)CC1`, the max response, negative = inhibition is reported as inactive: -17.8%.
With `Cc1scc(C(=O)N/N=C/c2ccsc2)c1C` the max response, negative = inhibition was inactive: -8.64%.
With `O=C(c1ccncc1)N1CCC2(CC1)CCN(c1cccc(-c3ccccc3)c1)CC2` the Potency was inconclusive: 79.4 µM [inhibitor, single point].
With `COc1cc(NC(=S)N2CCN(C(=O)c3ccco3)CC2)c(OC)cc1Cl` the Potency was inconclusive: 100 µM [inhibitor, single point].
In the case of `N#C/C(=C/c1cccn1-c1cccc(C(=O)O)c1)c1ccc(Cl)cc1`, the Potency is reported as inconclusive: 89.1 µM [inhibitor, single point].
For `COc1cc(/C=C2\SC(=O)N(Cc3ccc(F)cc3)C2=O)cc([N+](=O)[O-])c1O`, the Potency was inconclusive: 100 µM [inhibitor, single point].
With `Cc1ccccc1N1CC(C(=O)Nc2nnc(SCc3cccnc3)s2)CC1=O` (configuration not stated) the Potency was inconclusive: 100 µM [inhibitor, single point].
With `CN(C)c1ccc(NC(=O)c2cccc(C(=O)Nc3ccc(N(C)C)cc3)n2)cc1` the Potency was active: 79.4 µM.
For `Cc1nn(-c2ccccc2)c2c1CC(=O)Nc1ccccc1-2`, the max response, negative = inhibition was inactive: -0.802%.
With `Cc1ccc(NC(=O)CN2CCC(NC(=O)c3ccccc3F)CC2)cc1C` the Potency was inconclusive: 100 µM [inhibitor, single point].
In the case of `CCc1nn(CCCN2CCN(c3cccc(Cl)c3)CC2)c(=O)n1CCOc1ccccc1`, the Potency is reported as inconclusive: 100 µM [inhibitor, single point].
With `O=C(CCNc1cccc(F)c1)c1cccc([N+](=O)[O-])c1` the Potency was active: 89.1 µM.
With `Cc1cc(-n2cnc(-c3cn[nH]c3C)n2)no1` the Potency was inconclusive: 89.1 µM [inhibitor, single point].
In the case of `COC(=O)c1sc(NC(=O)c2ccc(Cn3cc(Cl)cn3)o2)c(C#N)c1C`, the Potency is reported as inconclusive: 56.2 µM [inhibitor, partial curve, poor fit].
In the case of `COc1ccc(S(=O)(=O)Nc2c(F)cccc2F)cc1`, the Potency is reported as inconclusive: 70.8 µM [inhibitor, partial curve].
`Cc1ccc(OCCN2C(=O)C(=O)c3cc(C)ccc32)cc1` was tested, and the Potency was inconclusive: 22.4 µM [inhibitor, partial curve, poor fit].
With `Cc1cccc(CSc2nnc(-c3ccco3)o2)c1` the max response, negative = inhibition was inactive: -8.65%.
For `CN(C)CCCc1cc(C(=O)Nc2ccc(-c3ccncc3)cc2)ccc1O`, the max response, negative = inhibition was inactive: -1.35% and inactive: 26.6% and inactive: 0.346%.
For `CCN(Cc1ccccc1)c1ccc(/C=N/NS(=O)(=O)c2ccc(C)c([N+](=O)[O-])c2)cc1`, the Potency was inconclusive: 56.2 µM [inhibitor, partial curve, poor fit].
`Cc1cc(NC(=O)C(C)SCC(=O)OCC(=O)N(C)c2ccccc2)no1` (configuration not stated) was tested, and the Potency was inconclusive: 89.1 µM [inhibitor, single point].
`Cc1ccccc1-c1cncnc1Nc1ccccc1` was tested, and the Potency was active: 44.7 µM.
With `COc1cccc(/C=N/NC(=O)CNC(=O)c2ccc3c(c2)OCCO3)c1O` the Potency was inconclusive: 100 µM [inhibitor, single point].
